# Results are given in words; binding and its absence hold for the method and conditions named. Binding seen in cells or lysates may run through a third protein. Some binding calls cover weakened binding; strength is not graded here.
# The chains behind the UniProt entries cited, without tags or fusion partners.
# UniProt P25025: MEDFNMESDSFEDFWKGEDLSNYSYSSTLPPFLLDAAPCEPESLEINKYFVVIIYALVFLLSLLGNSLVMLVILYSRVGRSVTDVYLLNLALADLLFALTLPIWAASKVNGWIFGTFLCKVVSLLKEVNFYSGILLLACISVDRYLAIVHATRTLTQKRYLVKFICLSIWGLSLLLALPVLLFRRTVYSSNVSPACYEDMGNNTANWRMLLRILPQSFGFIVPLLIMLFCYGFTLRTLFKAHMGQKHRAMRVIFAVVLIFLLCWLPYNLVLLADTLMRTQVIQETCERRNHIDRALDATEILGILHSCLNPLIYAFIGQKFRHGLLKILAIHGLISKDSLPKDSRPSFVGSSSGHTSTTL
# Experiments:
# [1] = biological target: T1, CD74 (endogenous mouse CD74 in L1.2-CXCR2 transfectants) (mouse) (UniProt P04441); assay: co-immunoprecipitation from L1.2-CXCR2 transfectants
# T1 sequence (looked up): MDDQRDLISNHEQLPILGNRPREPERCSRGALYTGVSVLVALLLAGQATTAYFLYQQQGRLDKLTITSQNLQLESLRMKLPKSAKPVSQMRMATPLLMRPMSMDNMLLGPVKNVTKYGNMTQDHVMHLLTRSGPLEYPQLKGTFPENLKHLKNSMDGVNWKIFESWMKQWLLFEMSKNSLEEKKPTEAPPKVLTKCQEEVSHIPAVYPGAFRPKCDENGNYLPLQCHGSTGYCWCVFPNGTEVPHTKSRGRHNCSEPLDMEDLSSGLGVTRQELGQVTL
# [2] = biological target: T1, CD74 (endogenous mouse CD74 in L1.2-CXCR2 transfectants) (mouse); assay: co-immunoprecipitation with an antibody to CXCR2 from L1.2-CXCR2 cells, western blot with antibody to mouse CD74
substance,measurement,setting,value
CXCR2 (human CXCR2 expressed on transfectants) (from UniProt P25025 1-360) (receptor),binding,[1],binds
same,binding,[2],binds
